Test results: paper PMC8783019
These are yes or no findings as the source states them, for the method shown. In cells and extracts the contact can be indirect. Some binding calls cover weakened binding; strength is not graded here. Where a sequence is shown, tags or fusion partners need not be part of it. Values belong to the binder of their own block, whether it stands above or below them.

Columns and labels:
[1] = target: T1, Myc-tagged MVK (Arabidopsis thaliana) (UniProt P46086); assay: co-IP; transient co-expression in N. benthamiana leaves, infiltrated with 200 uM ATP for 30 min or 2 mM MES pH 5.7; lysate in 50 mM Tris-HCl pH 7.5, 250 mM NaCl, 0.5% Triton-X 100; precipitated with anti-Myc and protein A resin at 4 C, blotted with anti-HA and anti-Myc
T1 sequence: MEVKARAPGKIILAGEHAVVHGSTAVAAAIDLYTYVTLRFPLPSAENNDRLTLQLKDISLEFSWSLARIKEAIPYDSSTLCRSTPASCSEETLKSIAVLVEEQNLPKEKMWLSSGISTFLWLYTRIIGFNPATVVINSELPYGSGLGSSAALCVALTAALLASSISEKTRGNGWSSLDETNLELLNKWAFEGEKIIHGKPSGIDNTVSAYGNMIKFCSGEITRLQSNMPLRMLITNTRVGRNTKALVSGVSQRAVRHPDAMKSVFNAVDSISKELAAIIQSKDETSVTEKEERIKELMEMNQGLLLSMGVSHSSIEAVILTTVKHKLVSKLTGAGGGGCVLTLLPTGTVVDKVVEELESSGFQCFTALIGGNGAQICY

[2] = target: T2, MVK fused to split YFP (BiFC) (Arabidopsis thaliana) (UniProt P46086); assay: split reporter; BiFC with split YFP in Arabidopsis leaf protoplasts, 24 h after PEG-mediated transformation, 23 C, dark; FM4-64 as plasma membrane stain
T2 sequence: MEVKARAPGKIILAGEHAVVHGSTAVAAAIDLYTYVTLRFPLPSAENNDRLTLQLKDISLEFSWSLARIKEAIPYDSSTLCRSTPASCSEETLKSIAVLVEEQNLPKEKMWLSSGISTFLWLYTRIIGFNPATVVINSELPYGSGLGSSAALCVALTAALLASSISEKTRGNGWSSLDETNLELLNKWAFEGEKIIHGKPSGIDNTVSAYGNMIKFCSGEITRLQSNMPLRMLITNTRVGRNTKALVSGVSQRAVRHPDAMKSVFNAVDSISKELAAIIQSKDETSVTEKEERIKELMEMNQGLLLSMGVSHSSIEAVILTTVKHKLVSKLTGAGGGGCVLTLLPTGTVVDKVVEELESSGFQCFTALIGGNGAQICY

[3] = target: T3, MKK3 fused to split YFP (BiFC) (Arabidopsis thaliana) (UniProt O80396); assay: as above
T3 sequence: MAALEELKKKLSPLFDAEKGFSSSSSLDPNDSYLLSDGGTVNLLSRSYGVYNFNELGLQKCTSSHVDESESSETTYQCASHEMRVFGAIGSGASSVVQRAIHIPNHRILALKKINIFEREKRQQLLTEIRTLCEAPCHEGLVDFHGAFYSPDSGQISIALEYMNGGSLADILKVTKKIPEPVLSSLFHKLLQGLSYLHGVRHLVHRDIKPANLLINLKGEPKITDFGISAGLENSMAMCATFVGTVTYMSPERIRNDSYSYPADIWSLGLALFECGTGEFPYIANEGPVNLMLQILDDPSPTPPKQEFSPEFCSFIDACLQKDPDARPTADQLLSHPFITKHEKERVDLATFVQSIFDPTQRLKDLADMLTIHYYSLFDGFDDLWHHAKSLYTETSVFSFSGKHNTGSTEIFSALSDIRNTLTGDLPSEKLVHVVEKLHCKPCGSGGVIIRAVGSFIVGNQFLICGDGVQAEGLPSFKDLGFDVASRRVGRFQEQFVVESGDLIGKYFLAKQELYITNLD

[4] = target: T4, MVK^C (MVK fused to the C-terminal luciferase fragment) (Arabidopsis thaliana) (UniProt P46086); assay: split reporter; split-luciferase complementation imaging in N. benthamiana leaves, 2 days after Agrobacterium infiltration; with 200 uM ATP or mock (2 mM MES pH 5.7); 1 mM D-luciferin, CCD camera
T4 sequence: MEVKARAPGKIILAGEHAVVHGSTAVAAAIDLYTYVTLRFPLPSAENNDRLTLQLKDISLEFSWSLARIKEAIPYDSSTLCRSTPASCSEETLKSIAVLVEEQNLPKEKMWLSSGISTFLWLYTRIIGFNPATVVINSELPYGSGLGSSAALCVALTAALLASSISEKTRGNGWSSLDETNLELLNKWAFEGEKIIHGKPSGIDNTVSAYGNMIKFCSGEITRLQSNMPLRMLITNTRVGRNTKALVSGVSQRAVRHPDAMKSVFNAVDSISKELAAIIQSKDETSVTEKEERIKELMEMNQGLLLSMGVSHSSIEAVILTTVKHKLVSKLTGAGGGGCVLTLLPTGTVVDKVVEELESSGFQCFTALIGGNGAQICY

[5] = target: T5, MKK3^C (MKK3 fused to the C-terminal luciferase fragment) (Arabidopsis thaliana) (UniProt O80396); assay: as above
T5 sequence: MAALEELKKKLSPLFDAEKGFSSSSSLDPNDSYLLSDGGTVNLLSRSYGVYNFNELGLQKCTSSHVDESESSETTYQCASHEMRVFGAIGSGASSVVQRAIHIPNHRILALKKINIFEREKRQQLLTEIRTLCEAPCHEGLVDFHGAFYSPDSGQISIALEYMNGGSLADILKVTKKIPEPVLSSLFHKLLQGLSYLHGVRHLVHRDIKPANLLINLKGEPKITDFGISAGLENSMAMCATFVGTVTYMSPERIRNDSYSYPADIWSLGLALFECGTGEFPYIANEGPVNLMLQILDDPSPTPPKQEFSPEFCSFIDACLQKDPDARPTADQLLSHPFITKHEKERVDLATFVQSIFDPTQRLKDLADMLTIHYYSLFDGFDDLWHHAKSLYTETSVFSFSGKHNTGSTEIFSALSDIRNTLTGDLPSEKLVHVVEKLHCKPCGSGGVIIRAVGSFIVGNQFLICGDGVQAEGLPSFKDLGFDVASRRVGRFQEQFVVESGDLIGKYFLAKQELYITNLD

- binding [1]: binds
B1: HA-tagged P2K1 (receptor, UniProt Q9LSR8 22-766)
chain: QQETSFVYESFLDRQNLYLDKSAIVLPSGLLQLTNASEHQMGHAFHKKPIEFSSSGPLSFSTHFVCALVPKPGFEGGHGIVFVLSPSMDFTHAESTRYLGIFNASTNGSSSYHVLAVELDTIWNPDFKDIDHNHVGIDVNSPISVAIASASYYSDMKGSNESINLLSGNPIQVWVDYEGTLLNVSVAPLEVQKPTRPLLSHPINLTELFPNRSSLFAGFSAATGTAISDQYILWWSFSIDRGSLQRLDISKLPEVPHPRAPHKKVSTLIILLPVCLAILVLAVLAGLYFRRRRKYSEVSETWEKEFDAHRFSYRSLFKATKGFSKDEFLGKGGFGEVYRGNLPQGREIAVKRVSHNGDEGVKQFVAEVVSMRCLKHRNLVPLFGYCRRKRELLLVSEYMPNGSLDEHLFDDQKPVLSWSQRLVVVKGIASALWYLHTGADQVVLHRDVKASNIMLDAEFHGRLGDFGMARFHEHGGNAATTAAVGTVGYMAPELITMGASTGTDVYAFGVFMLEVTCGRRPVEPQLQVEKRHMIKWVCECWKKDSLLDATDPRLGGKFVAEEVEMVMKLGLLCSNIVPESRPTMEQVVLYLNKNLPLPDFSPYTLGIGTFAPVLVDASSLVVSSASWSLSGPSMSSSSPNHSPYAWQSTDQPWGQTIDTKNSLHIVAEPEKPSPAVKMVTLPAEDPQSNHSSISSQRVQPVKREKRRLHQILVAFPWINKQYFKLGLPKHIVHVSLFFFLQLARL

- binding [2]: binds
- binding [3]: no binding
B2: P2K1 fused to split YFP (BiFC) (receptor, UniProt Q9LSR8 22-766)
chain: QQETSFVYESFLDRQNLYLDKSAIVLPSGLLQLTNASEHQMGHAFHKKPIEFSSSGPLSFSTHFVCALVPKPGFEGGHGIVFVLSPSMDFTHAESTRYLGIFNASTNGSSSYHVLAVELDTIWNPDFKDIDHNHVGIDVNSPISVAIASASYYSDMKGSNESINLLSGNPIQVWVDYEGTLLNVSVAPLEVQKPTRPLLSHPINLTELFPNRSSLFAGFSAATGTAISDQYILWWSFSIDRGSLQRLDISKLPEVPHPRAPHKKVSTLIILLPVCLAILVLAVLAGLYFRRRRKYSEVSETWEKEFDAHRFSYRSLFKATKGFSKDEFLGKGGFGEVYRGNLPQGREIAVKRVSHNGDEGVKQFVAEVVSMRCLKHRNLVPLFGYCRRKRELLLVSEYMPNGSLDEHLFDDQKPVLSWSQRLVVVKGIASALWYLHTGADQVVLHRDVKASNIMLDAEFHGRLGDFGMARFHEHGGNAATTAAVGTVGYMAPELITMGASTGTDVYAFGVFMLEVTCGRRPVEPQLQVEKRHMIKWVCECWKKDSLLDATDPRLGGKFVAEEVEMVMKLGLLCSNIVPESRPTMEQVVLYLNKNLPLPDFSPYTLGIGTFAPVLVDASSLVVSSASWSLSGPSMSSSSPNHSPYAWQSTDQPWGQTIDTKNSLHIVAEPEKPSPAVKMVTLPAEDPQSNHSSISSQRVQPVKREKRRLHQILVAFPWINKQYFKLGLPKHIVHVSLFFFLQLARL

- binding [4]: binds
- binding [5]: no binding
B3: P2K1^N (P2K1 fused to the N-terminal luciferase fragment) (receptor, UniProt Q9LSR8 22-766)
chain: QQETSFVYESFLDRQNLYLDKSAIVLPSGLLQLTNASEHQMGHAFHKKPIEFSSSGPLSFSTHFVCALVPKPGFEGGHGIVFVLSPSMDFTHAESTRYLGIFNASTNGSSSYHVLAVELDTIWNPDFKDIDHNHVGIDVNSPISVAIASASYYSDMKGSNESINLLSGNPIQVWVDYEGTLLNVSVAPLEVQKPTRPLLSHPINLTELFPNRSSLFAGFSAATGTAISDQYILWWSFSIDRGSLQRLDISKLPEVPHPRAPHKKVSTLIILLPVCLAILVLAVLAGLYFRRRRKYSEVSETWEKEFDAHRFSYRSLFKATKGFSKDEFLGKGGFGEVYRGNLPQGREIAVKRVSHNGDEGVKQFVAEVVSMRCLKHRNLVPLFGYCRRKRELLLVSEYMPNGSLDEHLFDDQKPVLSWSQRLVVVKGIASALWYLHTGADQVVLHRDVKASNIMLDAEFHGRLGDFGMARFHEHGGNAATTAAVGTVGYMAPELITMGASTGTDVYAFGVFMLEVTCGRRPVEPQLQVEKRHMIKWVCECWKKDSLLDATDPRLGGKFVAEEVEMVMKLGLLCSNIVPESRPTMEQVVLYLNKNLPLPDFSPYTLGIGTFAPVLVDASSLVVSSASWSLSGPSMSSSSPNHSPYAWQSTDQPWGQTIDTKNSLHIVAEPEKPSPAVKMVTLPAEDPQSNHSSISSQRVQPVKREKRRLHQILVAFPWINKQYFKLGLPKHIVHVSLFFFLQLARL
